Laboratory results from PubChem BioAssay AID206 (DTP/NCI, 2004).
The list shows only some results of the screen, not a fair sample: it gathers some chemical classes. Other doses and runs of a compound may be missing. T/C is the treated group as % of the vehicle group. Schedules are NCI's codes, read here as Q, the interval in days (D) or hours (H), X, the number of doses.

Test system: nude mice, HT29 intrarenal xenograft, tumor weight T/C
Assay: NCI In Vivo Anticancer Drug Screen. Data for tumor model HT29;CX-1 Human Adenocarcinoma (MER+) (intrarenal inoculation) in NU/NU Swiss (nude) mice
Settings: T/C endpoint: mean tumor weight change, schedule: Q01DX010 (sc), vehicle: saline, evaluated on day 20, higher T/C = larger tumour
Procedure: The antitumor activity of compounds was measured in mice bearing transplantable tumors. Survival or tumor size were measured and the results are expressed as the measurement made in the treated group (T) divided by the measurement made in the vehicle treated control group (C). The tumor model used in this assay is HT29;CX-1 Human Adenocarcinoma (MER+) (intrarenal inoculation) in NU/NU Swiss (nude) mice

`CN(CCCl)CCCl` was tested, and the T/C (dose: 0.13 mg/kg/injection) was 129 % of control, the T/C (dose: 0.25 mg/kg/injection) was 75 % of control and the T/C (dose: 0.5 mg/kg/injection) was 107 % of control.
